Measurements as given in US5965701A, “Kappa receptor opioid peptides” (priority 1997, dated 1999).
Some of these results come from one statement about several compounds together. Not every detail of the peptide structures is certain; ends, links or a residue may be inferred. Where a SMILES comes first, the peptide text is derived from it. [ ]: non-standard residue; d: D form. The star is where a group is joined. dPhe(4-NO2) = N[C@H](Cc1ccc([N+](=O)[O-])cc1)C(=O)O; dPhe(4-CH2NH2) = NCc1ccc(C[C@@H](N)C(=O)O)cc1; dPhe(4-Cl) = N[C@H](Cc1ccc(Cl)cc1)C(=O)O; dPhe(4-F) = N[C@H](Cc1ccc(F)cc1)C(=O)O; d1Nal = N[C@H](Cc1cccc2ccccc12)C(=O)O; d2Nal = N[C@H](Cc1ccc2ccccc2c1)C(=O)O; d(hArg) = N=C(N)NCCCC[C@@H](N)C(=O)O; dAla(cPent) = N[C@H](CC1CCCC1)C(=O)O; NH(4-picolyl) = c1cc(CN*)ccn1; dNle = CCCC[C@@H](N)C(=O)O; dDab = NCC[C@@H](N)C(=O)O; Morpholide = C1CN(*)CCO1; NHCH2CH2OH = OCCN*; X2 = OC1CCN(*)CC1; NEt2 = CCN(CC)*; NHcPr = C1CC1N*; NHPr = CCCN*

system: conscious male ICR mice; assay: Mouse acetic acid writhing test (WT); format: in vivo; details: result in words
Description: Selected peptides that are identified in Tables A-G have been further specifically subjected to in vivo testing for determination of duration of action of their opioid properties, and the results are reported in Table H hereinafter. The peptide numbers correspond to those in the earlier tables and the figures with regard to μ/K ratio are simply carried over for reference purposes. The in vivo testing is carried out using a mouse writhing test (WT) that is well-suited for determining the length of duration of antinociceptive biological activity. This test is described in detail in an article by G. A. Bentley et al., Br. J. Phamac., 73:325-332, 1981, and it employs conscious male ICR mice which are purchased from Harlan and which weigh between 20 and 30 grams. The mice are fasted for 12 to 16 hours prior to beginning the test. The nociceptive behavior, i.e. writhing, to be monitored is induced by the intraperitoneal (i.p.) administration of dilute acetic acid. 10 milliliters of 0.6% aqueous acetic acid is used per kg of body weight. Writhing is scored during the 15 minutes following acetic acid administration. In a first step, compounds are tested at 3 to 4 increasing doses, given by intravenous route, and at one unique pretreatment time (-5 minutes before acetic acid injection). […] In a second step, this submaximal effective dose for each specific peptide is administered at various pretreatment times (i.e. -5 minutes, -60 minutes, -120 minutes and -180 minutes) prior to the administration of the acetic acid in order to determine the duration of action. Throughout the test, a control group of mice are used which are administered only the vehicle without the candidate peptide. The number of writhes are counted over a 15-minute period, starting from the time of acetic acid injection, and bioactivity, i.e. antinociception, is expressed as a percentage, and is calculated as follows:
100×(writhes in control group-writhes in treated group)/writhes in
Values higher than 100% indicate greater antinociception than at the beginning of the experiment. It is felt that the opioid peptide should be effective to reduce writhing by at least about 25% at a time of 1 hour to be considered to have long duration of in vivo action.
In addition to using this test to determine duration of antinociceptive activity, it is also used to measure the in vivo biopotency (short term) of the peptide. This value is given in the table under the heading WT-ED50 in milligrams per kg of body weight. The value is a measure of the dosage necessary to reduce the number of writhes in the mouse being tested by 50% (as compared to a control mouse) over a period of 15 minutes.

For CCCC[C@@H](NC(=O)[C@@H](Cc1ccccc1)NC(=O)[C@H](N)Cc1ccccc1)C(=O)N[C@H](CCN)C(=O)NCc1ccncc1 [Peptide 34, H-D-Phe-D-Phe-D-Nle-D-Dbu-NH(4Pic)] (H-[dF][dF][dNle][dDab]-{NH(4-picolyl)}), which “duration of antinociceptive bioactivity (duration of action)” value (“duration of antinociceptive bioactivity” below) is on record?
The value was “long duration of antinociceptive bioactivity”.

CCCC[C@@H](NC(=O)[C@@H](Cc1ccc([N+](=O)[O-])cc1)NC(=O)[C@H](N)Cc1ccccc1)C(=O)N[C@H](CCCNC(=N)N)C(=O)N1CCOCC1 [Peptide 21, H-D-Phe-D-4NO2 Phe-D-Nle-D-Arg-Mor] (H-[dF][dPhe(4-NO2)][dNle][dR]-Morpholide) was tested. Which “duration of antinociceptive bioactivity” value did it give?
The value was “long duration of antinociceptive bioactivity”.

For N=C(N)NCCC[C@@H](NC(=O)[C@@H](CC1CCCC1)NC(=O)[C@@H](Cc1ccccc1)NC(=O)[C@H](N)Cc1ccccc1)C(=O)N1CCOCC1 [Peptide 28, H-D-Phe-D-Phe-D-Acp-D-Arg-Mor] (H-[dF][dF][dAla(cPent)][dR]-Morpholide), which “duration of antinociceptive bioactivity” value is on record?
Its value is “long duration of antinociceptive bioactivity”.

With “H-D-Phe-D-Phe-D-Nle-D-Arg-Ecp [Peptide 42]” as the molecule, how does the “duration of antinociceptive bioactivity” value read?
The value was “long duration of antinociceptive bioactivity”.

With CCCC[C@@H](NC(=O)[C@@H](Cc1ccccc1)NC(=O)[C@H](N)Cc1ccccc1)C(=O)N[C@H](CCCNC(=N)N)C(=O)NCCO [Peptide 9, H-D-Phe-D-Phe-D-Nle-D-Arg-NHhEt] (H-[dF][dF][dNle][dR]-NHCH2CH2OH) as the molecule, how does the “duration of antinociceptive bioactivity” value read?
Its value is “long duration of antinociceptive bioactivity”.

CCCC[C@@H](NC(=O)[C@@H](Cc1cccc2ccccc12)NC(=O)[C@H](N)Cc1ccccc1)C(=O)N[C@H](CCCNC(=N)N)C(=O)NCc1ccncc1 [Peptide 23, H-D-Phe-D-1Nal-D-Nle-D-Arg-NH(4Pic)] (H-[dF][d1Nal][dNle][dR]-{NH(4-picolyl)}) was tested. Which “duration of antinociceptive bioactivity” value did it give?
The value was “long duration of antinociceptive bioactivity”.

How did the “duration of antinociceptive bioactivity” value turn out when CCCC[C@@H](NC(=O)[C@@H](Cc1ccc(Cl)cc1)NC(=O)[C@H](N)Cc1ccccc1)C(=O)N[C@H](CCCNC(=N)N)C(=O)N1CCOCC1 [Peptide 22, H-D-Phe-D-4Cpa-D-Nle-D-Arg-Mor] (H-[dF][dPhe(4-Cl)][dNle][dR]-Morpholide) was run?
The value was “long duration of antinociceptive bioactivity”.

For “H-D-Ala(Thi)-D-Phe-D-Nle-D-Arg-NHEt [Peptide 18]”, which “duration of antinociceptive bioactivity” value is on record?
Its value is “long duration of antinociceptive bioactivity”.

CC(C)C[C@@H](NC(=O)[C@@H](Cc1ccc2ccccc2c1)NC(=O)[C@H](N)Cc1ccc(F)cc1)C(=O)N[C@H](CCCNC(=N)N)C(=O)N1CCOCC1 [Peptide 62, H-D-4Fpa-D-2Nal-D-Leu-D-Arg-Mor] (H-[dPhe(4-F)][d2Nal][dL][dR]-Morpholide) was tested. Which “duration of antinociceptive bioactivity” value did it give?
Its value is “long duration of antinociceptive bioactivity”.

Which “duration of antinociceptive bioactivity” value does the source give for CCCC[C@@H](NC(=O)[C@@H](Cc1ccc(O)cc1)NC(=O)[C@H](N)Cc1ccccc1)C(=O)N[C@H](CCCNC(=N)N)C(=O)NCc1ccncc1 [Peptide 25, H-D-Phe-D-Tyr-D-Nle-D-Arg-NH(4Pic)] (H-[dF][dY][dNle][dR]-{NH(4-picolyl)}) here?
Its value is “long duration of antinociceptive bioactivity”.

Which “duration of antinociceptive bioactivity” value does the source give for CCCC[C@@H](NC(=O)[C@@H](Cc1ccccc1)NC(=O)[C@H](N)Cc1ccc(F)cc1)C(=O)N[C@H](CCCNC(=N)N)C(=O)NCC [Peptide 16, H-D-4Fpa-D-Phe-D-Nle-D-Arg-NHEt] (H-[dPhe(4-F)][dF][dNle][dR]-NHEt) here?
Its value is “long duration of antinociceptive bioactivity”.

For “H-D-Phe-D-Phe-D-Lcu-D-Dbu-NH(4Pic) [Peptide 52]”, which “duration of antinociceptive bioactivity” value is on record?
Its value is “long duration of antinociceptive bioactivity”.

How did the “duration of antinociceptive bioactivity” value turn out when CCCC[C@@H](NC(=O)[C@@H](Cc1ccccc1)NC(=O)[C@H](N)Cc1ccccc1)C(=O)N[C@H](CCCNC(=N)N)C(=O)NC1CC1 [Peptide 5, H-D-Phe-D-Phe-D-Nle-D-Arg-NH(Cyp)] (H-[dF][dF][dNle][dR]-NHcPr) was run?
Its value is “long duration of antinociceptive bioactivity”.

For “H-D-Phe-D-Phe-D-Nle-D-Har-NH(4Pic) [Peptide 50]”, which “duration of antinociceptive bioactivity” value is on record?
The value was “long duration of antinociceptive bioactivity”.

For CCCC[C@@H](NC(=O)[C@@H](Cc1ccccc1)NC(=O)[C@H](N)Cc1ccccc1)C(=O)N[C@H](CCCNC(=N)N)C(=O)N(CC)CC [Peptide 7, H-D-Phe-D-Phe-D-Nle-D-Arg-N(Et2)] (H-[dF][dF][dNle][dR]-NEt2), which “duration of antinociceptive bioactivity” value is on record?
The value was “long duration of antinociceptive bioactivity”.

For CCCC[C@@H](NC(=O)[C@@H](Cc1ccccc1)NC(=O)[C@H](N)Cc1ccccc1)C(=O)N[C@H](CCCNC(=N)N)C(=O)N1CCC(O)CC1 [Peptide 11, H-D-Phe-D-Phe-D-Nle-D-Arg-4-HyP] (H-[dF][dF][dNle][dR]-X2), which “duration of antinociceptive bioactivity” value is on record?
The value was “long duration of antinociceptive bioactivity”.

Which “duration of antinociceptive bioactivity” value does the source give for CCCC[C@@H](NC(=O)[C@@H](Cc1ccccc1)NC(=O)[C@H](N)Cc1ccc(O)cc1)C(=O)N[C@H](CCCNC(=N)N)C(=O)N1CCOCC1 [Peptide 19, H-D-Tyr-D-Phe-D-Nle-D-Arg-Mor] (H-[dY][dF][dNle][dR]-Morpholide) here?
Its value is “long duration of antinociceptive bioactivity”.

With CCCC[C@@H](NC(=O)[C@@H](Cc1ccccc1)NC(=O)[C@H](N)Cc1ccccc1)C(=O)N[C@H](CCCCNC(=N)N)C(=O)NCC [Peptide 30, H-D-Phe-D-Phe-D-Nle-D-Har-NHEt] (H-[dF][dF][dNle][d(hArg)]-NHEt) as the molecule, how does the “duration of antinociceptive bioactivity” value read?
The value was “long duration of antinociceptive bioactivity”.

With CC(C)[C@@H](NC(=O)[C@@H](Cc1ccccc1)NC(=O)[C@H](N)Cc1ccccc1)C(=O)N[C@H](CCCNC(=N)N)C(=O)N1CCOCC1 [Peptide 27, H-D-Phe-D-Phc-D-Val-D-Arg-Mor] (H-[dF][dF][dV][dR]-Morpholide) as the molecule, how does the “duration of antinociceptive bioactivity” value read?
Its value is “long duration of antinociceptive bioactivity”.

With CCCC[C@@H](NC(=O)[C@@H](Cc1ccccc1)NC(=O)[C@H](N)CC1CCCC1)C(=O)N[C@H](CCCNC(=N)N)C(=O)NCC [Peptide 17, H-D-Acp-D-Phe-D-Nle-D-Arg-NHEt] (H-[dAla(cPent)][dF][dNle][dR]-NHEt) as the molecule, how does the “duration of antinociceptive bioactivity” value read?
The value was “long duration of antinociceptive bioactivity”.

“H-D-Phe-D-Phe-D-Lcu-D-Lys-NH(4Pic) [Peptide 47]” was tested. Which “duration of antinociceptive bioactivity” value did it give?
Its value is “long duration of antinociceptive bioactivity”.

CCCC[C@@H](NC(=O)[C@@H](Cc1ccccc1)NC(=O)[C@H](N)Cc1ccccc1)C(=O)N[C@H](CCCCN)C(=O)N1CCOCC1 [Peptide 29, H-D-Phe-D-Phe-D-Nle-D-Lya-Mor] was tested. Which “duration of antinociceptive bioactivity” value did it give?
Its value is “long duration of antinociceptive bioactivity”.

With CCCC[C@@H](NC(=O)[C@@H](Cc1ccccc1)NC(=O)[C@H](N)Cc1ccccc1)C(=O)N[C@H](CCCNC(=N)N)C(=O)NC [Peptide 2, H-D-Phe-D-Phe-D-Nle-D-Arg-NHMe] (H-[dF][dF][dNle][dR]-NHMe) as the molecule, how does the “duration of antinociceptive bioactivity” value read?
The value was “long duration of antinociceptive bioactivity”.

For CC(C)C[C@@H](NC(=O)[C@@H](Cc1ccccc1)NC(=O)[C@H](N)Cc1ccccc1)C(=O)N[C@H](CCCN)C(=O)NCc1ccncc1 [Peptide 35, H-D-Phe-D-Phe-D-Leu-D-Orn-NH(4Pic)], which “duration of antinociceptive bioactivity” value is on record?
The value was “long duration of antinociceptive bioactivity”.

With CC(C)C[C@@H](NC(=O)[C@@H](Cc1ccccc1)NC(=O)[C@H](N)Cc1ccccc1)C(=O)N[C@H](CCCN)C(=O)N1CCOCC1 [Peptide 57, H-D-Phe-D-Phe-D-Leu-D-Onn-Mor] as the molecule, how does the “duration of antinociceptive bioactivity” value read?
Its value is “long duration of antinociceptive bioactivity”.

CCCC[C@@H](NC(=O)[C@@H](Cc1ccccc1)NC(=O)[C@H](N)Cc1ccccc1)C(=O)N[C@H](Cc1ccc(CN)cc1)C(=O)NCC [Peptide 55, H-D-Phe-D-Phe-D-Nle-D-Amf-NHEt] (H-[dF][dF][dNle][dPhe(4-CH2NH2)]-NHEt) was tested. Which “duration of antinociceptive bioactivity” value did it give?
Its value is “long duration of antinociceptive bioactivity”.

Which “duration of antinociceptive bioactivity” value does the source give for CCCC[C@@H](NC(=O)[C@@H](Cc1ccccc1)NC(=O)[C@H](N)Cc1ccccc1)C(=O)N[C@H](Cc1ccc(CN)cc1)C(=O)NCc1ccncc1 [Peptide 33, H-D-Phe-D-Phe-D-Nle-D-Amf-NH(4Pic)] (H-[dF][dF][dNle][dPhe(4-CH2NH2)]-{NH(4-picolyl)}) here?
Its value is “long duration of antinociceptive bioactivity”.

With CCCC[C@@H](NC(=O)[C@@H](Cc1ccccc1)NC(=O)[C@H](N)Cc1ccccc1)C(=O)N[C@H](CCCNC(=N)N)C(=O)NCCC [Peptide 3, H-D-Phe-D-Phe-D-Nle-D-Arg-NHPr] (H-[dF][dF][dNle][dR]-NHPr) as the molecule, how does the “duration of antinociceptive bioactivity” value read?
Its value is “long duration of antinociceptive bioactivity”.
